Reference: PubChem BioAssay AID1224826 (NIAID, 2016)
Shown is an unselected part of about 17,000 reagents tested. About 1,110 of them (6.6%) count as active. 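Active means lowered or raised reporter signal; replicate intensities are raw and not normalised per plate.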 A number with no mark means an inactive call.

- Screen: 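Regulators of Tlr4 signalling leading to Tnf-alpha expression in macrophages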 (primary screen)
- Cell system: RAW264.7 G9 macrophages from mouse bearing reporters for p65 (GFP) and the Tnf promoter (mCherry)
- Reagents: siRNA pool against mouse genes, 100 nM
- Duration: 16 h of LPS stimulation, after 2 days of siRNA transfection
- Treatment: bacterial lipopolysaccharide (Salmonella minnesota R595), 10 ng/ml
- Detection: 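Nuclear mCherry signal of the Tnf promoter reporter measured by imaging after background removal, scaled to each plate median and turned into robust z-scores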
- Scale: Tnf reporter robust z-score: higher = stronger Tnf promoter reporter signal after LPS; Tnf reporter intensity: higher = stronger Tnf promoter reporter signal
- Call rule: 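Called active when robust z-score is at most -1.3, matching the median of the Tlr4 knock-down control, or over 3; control wells and wells with under 50 cells never active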
- Meaning of the calls: active = Tnf reporter clearly lowered or raised; inactive = no clear change in Tnf reporter

gene | PubChem SID | Tnf reporter robust z-score | fewer than 50 cells in well | Tnf reporter intensity, replicate 1 | Tnf reporter intensity, replicate 2
Dimt1 (DIM1 rRNA methyltransferase and ribosome maturation factor) | SID315472320 | -0.22 | enough cells in well | 267 | 64.5
Cmc2 (C-X9-C motif containing 2) | SID315472497 | 0.41 | enough cells in well | 200 | 157
Or10ag52 (olfactory receptor family 10 subfamily AG member 52) | SID315481943 | -0.89 | enough cells in well | 128 | 108
Fnbp1l (formin binding protein 1-like) | SID315477862 | 0.95 | enough cells in well | 286 | 106
Atp6v1a (ATPase, H+ transporting, lysosomal V1 subunit A) | SID315465561 | 0.49 | enough cells in well | 204 | 188
Klc3 (kinesin light chain 3) | SID315479023 | -0.28 | enough cells in well | 195 | 152
Tuft1 (tuftelin 1) | SID315469880 | -0.63 | enough cells in well | 92.8 | 71
Pnma2 (paraneoplastic antigen MA2) | SID315479425 | – | fewer than 50 cells per well; well left out of calls | 80.6 | 54.5
Polr1has (RNA polymerase I subunit H, antisense) | SID315475308 | 2.86 | enough cells in well | 412 | 181
Or6c214 (olfactory receptor family 6 subfamily C member 214) | SID315480552 | – | fewer than 50 cells per well; well left out of calls | 34.3 | 41.2
Defb4 (defensin beta 4) | SID315471587 | 0.04 | enough cells in well | 269 | 100
A730018C14Rik (RIKEN cDNA A730018C14 gene) | SID315481124 | 0.3 | enough cells in well | 180 | 177
Pamr1 | SID315477647 | -0.19 | enough cells in well | 157 | 119
Cep55 (centrosomal protein 55) | SID315474847 | 1.59 | enough cells in well | 324 | 167
Vldlr (very low density lipoprotein receptor) | SID315470008 | 0.82 | enough cells in well | 245 | 351
Rnls (renalase, FAD-dependent amine oxidase) | SID315473229 | 0.69 | enough cells in well | 254 | 200
Vpreb1b (V-set pre-B cell surrogate light chain 1B) | SID315470012 | -0.46 | enough cells in well | 173 | 219
Gys2 (glycogen synthase 2) | SID315478995 | 0.23 | enough cells in well | 292 | 240
Isg20l2 (interferon stimulated exonuclease gene 20-like 2) | SID315478709 | 1.18 | enough cells in well | 256 | 210
Msi1 (musashi RNA-binding protein 1) | SID315467991 | 1.18 | enough cells in well | 230 | 197
Vat1l (vesicle amine transport protein 1 like) | SID315480916 | -1.31 (active) | enough cells in well | 93.7 | 125
Or7a35 (olfactory receptor family 7 subfamily A member 35) | SID315480648 | 0.56 | enough cells in well | 218 | 162
Med14 (mediator complex subunit 14) | SID315470466 | -1.47 (active) | enough cells in well | 127 | 93.5

Part of the list above, set out differently.
gene,PubChem SID,Tnf reporter robust z-score,fewer than 50 cells in well,"Tnf reporter intensity, replicate 1","Tnf reporter intensity, replicate 2"
Or10ag52 (olfactory receptor family 10 subfamily AG member 52),SID315481943,-0.89,enough cells in well,128,108
Fnbp1l (formin binding protein 1-like),SID315477862,0.95,enough cells in well,286,106
"Atp6v1a (ATPase, H+ transporting, lysosomal V1 subunit A)",SID315465561,0.49,enough cells in well,204,188
Klc3 (kinesin light chain 3),SID315479023,-0.28,enough cells in well,195,152
Tuft1 (tuftelin 1),SID315469880,-0.63,enough cells in well,92.8,71
Pnma2 (paraneoplastic antigen MA2),SID315479425,,fewer than 50 cells per well; well left out of calls,80.6,54.5
"Polr1has (RNA polymerase I subunit H, antisense)",SID315475308,2.86,enough cells in well,412,181

Next results follow:
gene | PubChem SID | Tnf reporter robust z-score | fewer than 50 cells in well | Tnf reporter intensity, replicate 1 | Tnf reporter intensity, replicate 2
Aloxe3 (arachidonate lipoxygenase 3) | SID315470178 | -0.4 | enough cells in well | 152 | 139
Cep128 (centrosomal protein 128) | SID315475088 | -0.05 | enough cells in well | 163 | 154
Tars2 (threonyl-tRNA synthetase 2, mitochondrial (putative)) | SID315474335 | -0.43 | enough cells in well | 192 | 67.1
Crispld2 (cysteine-rich secretory protein LCCL domain containing 2) | SID315475640 | 3.5 (active) | enough cells in well | 279 | 161
4732427B05 | SID315482011 | -0.33 | enough cells in well | 167 | 59.7
Entpd5 (ectonucleoside triphosphate diphosphohydrolase 5) | SID315465857 | -0.57 | enough cells in well | 194 | 175
Pax5 (paired box 5) | SID315468394 | -0.23 | enough cells in well | 224 | 167
Sipa1 (signal-induced proliferation associated gene 1) | SID315469257 | -0.47 | enough cells in well | 279 | 144
Ly6g5c (lymphocyte antigen 6 family member G5C) | SID315477024 | 2.13 | enough cells in well | 317 | 259
Exosc4 (exosome component 4) | SID315476780 | -0.37 | enough cells in well | 144 | 168
Zscan2 (zinc finger and SCAN domain containing 2) | SID315470110 | -0.58 | enough cells in well | 113 | 102
Fig4 (FIG4 phosphoinositide 5-phosphatase) | SID315476365 | 0.55 | enough cells in well | 186 | 188
Krt35 (keratin 35) | SID315471092 | 0.49 | enough cells in well | 282 | 173
Plcl2 (phospholipase C-like 2) | SID315478383 | -0.15 | enough cells in well | 128 | 64.4
Gulp1 (GULP, engulfment adaptor PTB domain containing 1) | SID315474108 | -0.94 | enough cells in well | 176 | 159
Senp1 (SUMO1/sentrin specific peptidase 1) | SID315478301 | 1.22 | enough cells in well | 434 | 270
Crabp1 (cellular retinoic acid binding protein I) | SID315466103 | 0.24 | enough cells in well | 189 | 202
Or10a3 (olfactory receptor family 10 subfamily A member 3) | SID315479996 | -0.73 | enough cells in well | 75.8 | 65.7
Snx9 (sorting nexin 9) | SID315472543 | -0.11 | enough cells in well | 307 | 174
Pdik1l (PDLIM1 interacting kinase 1 like) | SID315478831 | -0.48 | enough cells in well | 132 | 130
Tgs1 (trimethylguanosine synthase 1) | SID315477076 | -1.61 (active) | enough cells in well | 138 | 78.9
Smyd3 (SET and MYND domain containing 3) | SID315473881 | -0.23 | enough cells in well | 292 | 168
Ubqln2 (ubiquilin 2) | SID315471262 | 3.52 (active) | enough cells in well | 254 | 159
1700067K01Rik (RIKEN cDNA 1700067K01 gene) | SID315474731 | 1.53 | enough cells in well | 315 | 131
Tek (TEK receptor tyrosine kinase) | SID315469657 | 2.45 | enough cells in well | 268 | 283
Agr2 (anterior gradient 2) | SID315470175 | -0.25 | enough cells in well | 173 | 187
Ccdc120 (coiled-coil domain containing 120) | SID315471283 | 0.56 | enough cells in well | 195 | 155
Ubxn2b (UBX domain protein 2B) | SID315473392 | – | fewer than 50 cells per well; well left out of calls | 130 | 46.5
Or51g2 (olfactory receptor family 51 subfamily G member 2) | SID315480707 | 0.23 | enough cells in well | 115 | 126
Nphs1 (nephrosis 1, nephrin) | SID315471272 | 0.59 | enough cells in well | 324 | 191
Fgf3 (fibroblast growth factor 3) | SID315466669 | 0.58 | enough cells in well | 303 | 285
Ugcg (UDP-glucose ceramide glucosyltransferase) | SID315469926 | 0.02 | enough cells in well | 242 | 218
Rbm5 (RNA binding motif protein 5) | SID315475830 | -0.46 | enough cells in well | 285 | 157
Vma12 (vacuolar ATPase assembly factor VMA12) | SID315477461 | -0.67 | enough cells in well | 148 | 155
Rps19 (ribosomal protein S19) | SID315469041 | -0.21 | enough cells in well | 130 | 108
